Assay results from patent USRE45313E1 (priority 1999, dated 2014).

Legend:
[1] = general procedure: Fmoc solid-phase peptide synthesis; TentaGel S-RAM-Lys(Boc)Fmoc; DIC/HObt (Fmoc-amino acid HObt esters generated in situ, 3 eq.); conditions: whole synthesis, scale of the general procedure 100-1000 mg resin, 0.22-0.31 mmol/g; for final HPLC purity: RP-HPLC, UV 215 nm
[2] = general procedure: Fmoc solid-phase peptide synthesis; TentaGel S-RAM-Fmoc; DIC/HObt (Fmoc-amino acid HObt esters generated in situ, 3 eq.); conditions: whole synthesis, scale of the general procedure 100-1000 mg resin, 0.22-0.31 mmol/g
[3] = general procedure: Fmoc solid-phase peptide synthesis; TentaGel S-RAM; TentaGel S RAM-Lys(Boc)Fmoc (0.22-0.31 mmol/g, Rapp polymere); DIC/HObt (Fmoc-amino acid HObt esters generated in situ, 3 eq.); conditions: whole synthesis, RP-HPLC, UV 215 nm, scale of the general procedure 100-1000 mg resin
[4] = general procedure: Fmoc solid-phase peptide synthesis; TentaGel S-RAM; DIC/HObt (Fmoc-amino acid HObt esters generated in situ, 3 eq.); conditions: whole synthesis, scale of the general procedure 100-1000 mg resin, 0.22-0.31 mmol/g

Substance: H-His-Gly-Glu-Gly-Thr-Phe-Thr-Phe-Thr-Ser-Asp-Asp-Leu-Ser-Lys-Gln-Met-Glu-Glu-Glu-Ala-Val-Arg-Leu-Phe-Ile-Glu-Trp-Leu-Lys-Asn-Gly-Gly-Pro-Ser-Ser-Gly-Ala-Ser-(Lys)6-NH2
- final HPLC purity [1]: better than 97%
- isolated yield [1]: 19%

Substance: H-His-Gly-Glu-Gly-Thr-Phe-Thr-Phe-Thr-Ser-Asp-Val-Ser-Ser-Try-Leu-Glu-Gly-Gln-Ala-Ala-Lys-Glu-Phe-Ile-Ala-Trp-Leu-Val-Lys-Gly-Arg-Lys-Lys-Lys-Lys-Lys-Lys-Lys-Lys-Lys-Lys-NH2
- final HPLC purity [1]: better than 95%
- isolated yield [1]: 2%

Substance: H-His-Gly-Glu-Gly-Thr-Phe-Thr-Ser-Asp-Val-Ser-Ser-Tyr-Leu-Glu-Gly-Gln-Ala-Ala-Lys-Glu-Phe-Ile-Ala-Trp-Leu-Val-Lys-Gly-Arg-Lys-Lys-Lys-Lys-Lys-Lys-Lys-Lys-NH2
- final HPLC purity [1]: better than 98%
- isolated yield [1]: 4.2%

Substance: H-His-Gly-Gly-Gly-Thr-Phe-Thr-Ser-Asp-Val-Ser-Ser-Tyr-Leu -Glu-Gly-Gln-Ala-Ala-Lys-Glu-Phe-Ile-Ala-Trp-Leu-Val-Lys-Gly-Arg-Lys(palmitoyl)-(Lys)6-NH2
- final HPLC purity [1]: better than 95%
- isolated yield [1]: 9.3%

Substance: H-KKKKKKHGEGTFTSDVSSTLEGQAAKEFIAWLVKGR-NH2
- final HPLC purity ([2]; RP-HPLC, UV 215 nm): better than 98%
- isolated yield [2]: 15%

Substance: H-Lys-Lys-Lys-Lys-Lys-Lys-His-Gly-Glu-Gly-Thr-Phe-Thr-Ser-Asp-Val-Ser-Ser-Tyr-Leu-Glu-Gly-Gln-Ala-Ala-Lys-Glu-Phe-Ile-Ala-Trp-Leu-Val-Lys-Gly-Arg-Lys-Lys-Lys-Lys-Lys-Lys-NH2
- final HPLC purity [1]: better than 90%
- isolated yield [1]: 18%

Substance: PEPTIDE1{H.G.E.G.T.F.T.S.D.V.S.S.Y.L.E.G.Q.A.A.K.E.F.I.A.W.L.V.K.G.R.K.K.K.K.K.K.[am]}$$$$V2.0
- final HPLC purity ([3]; run 3): 97%
- final HPLC purity ([1]; run 1): better than 95%
- final HPLC purity ([1]; run 2): better than 90%
- isolated yield ([1]; run 1): 11.7%
- isolated yield ([1]; run 2): 13%

Substance: PEPTIDE1{H.G.E.G.T.F.T.S.D.V.S.S.Y.L.E.G.Q.A.A.K.E.F.I.A.W.L.V.K.G.R.[am]}$$$$V2.0
- final HPLC purity ([3]; run 2): 99.7%
- final HPLC purity ([4]; RP-HPLC, UV 215 nm, run 1): better than 95%
- isolated yield [4]: 9%

Substance: PEPTIDE1{H.G.E.G.T.F.T.S.D.V.S.S.Y.L.E.G.Q.A.A.K.E.F.I.A.W.L.V.[Lys(palmitoyl)].G.R.K.K.K.K.K.K.[am]}$$$$V2.0
- final HPLC purity [1]: better than 90%
- isolated yield [1]: 4.2%

Substance: PEPTIDE1{H.G.E.G.T.F.T.S.D.V.S.S.Y.L.E.G.Q.A.A.[Lys(palmitoyl)].E.F.I.A.W.L.V.K.G.R.K.K.K.K.K.K.[am]}$$$$V2.0
- final HPLC purity [1]: better than 90%
- isolated yield [1]: 2.2%

For part of these data: Some peptides are written in HELM: one residue between dots, names in brackets for other building blocks, links after the first $.
